Source: the M2OR odorant receptor database
This is a selection; strong and weak results do not stand in their true shares. Calls are pooled over several reports, among them a noisy single-well screen. The list shows a part of the results. Some of the results follow.

Sequences of proteins named here, by UniProt entry; tags and fusion partners are left off. A change or cut given only in a name is not applied to a line headed by its entry.
UniProt Q8N350: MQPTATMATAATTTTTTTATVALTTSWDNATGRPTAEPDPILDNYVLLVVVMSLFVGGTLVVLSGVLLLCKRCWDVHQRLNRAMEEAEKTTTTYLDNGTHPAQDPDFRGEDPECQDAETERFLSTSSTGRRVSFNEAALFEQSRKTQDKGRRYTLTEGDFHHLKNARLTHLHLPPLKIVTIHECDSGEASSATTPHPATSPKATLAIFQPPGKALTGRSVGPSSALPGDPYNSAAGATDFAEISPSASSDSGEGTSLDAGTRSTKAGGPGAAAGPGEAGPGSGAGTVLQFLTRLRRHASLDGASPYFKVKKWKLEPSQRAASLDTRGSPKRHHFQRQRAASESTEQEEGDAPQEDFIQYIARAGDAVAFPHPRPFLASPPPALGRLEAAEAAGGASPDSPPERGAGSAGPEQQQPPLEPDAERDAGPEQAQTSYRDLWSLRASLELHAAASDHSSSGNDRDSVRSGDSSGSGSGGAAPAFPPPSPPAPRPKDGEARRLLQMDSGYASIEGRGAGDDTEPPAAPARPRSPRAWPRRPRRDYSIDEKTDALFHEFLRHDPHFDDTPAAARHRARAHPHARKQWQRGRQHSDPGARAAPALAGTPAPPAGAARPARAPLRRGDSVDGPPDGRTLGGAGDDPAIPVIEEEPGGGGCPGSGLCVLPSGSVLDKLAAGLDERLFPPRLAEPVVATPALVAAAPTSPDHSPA

Legend:
Details in all cases: stereoisomer not certain
A0A140T8K0 = test system: T1, A0A140T8K0
T1 sequence (whole entry): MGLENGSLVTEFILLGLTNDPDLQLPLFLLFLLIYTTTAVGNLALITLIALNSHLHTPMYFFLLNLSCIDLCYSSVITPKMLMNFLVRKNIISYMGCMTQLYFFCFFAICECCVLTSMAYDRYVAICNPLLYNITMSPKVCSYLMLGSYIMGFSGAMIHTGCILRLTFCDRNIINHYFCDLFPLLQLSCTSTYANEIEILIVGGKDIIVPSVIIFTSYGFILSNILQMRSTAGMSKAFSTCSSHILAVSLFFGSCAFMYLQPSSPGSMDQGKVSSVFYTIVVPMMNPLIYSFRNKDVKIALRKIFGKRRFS
In short: (§1)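 Values were gathered from published papers (main text and supplementary material), with extra details requested from the original authors when needed, and checked for typos and inconsistencies. Each receptor–molecule pair is called responsive (active) if the original authors judged the measured signal statistically different from baseline, and non-responsive (inactive) otherwise. Assay methods varied by source, often transient mammalian cell-line luciferase assays. Recorded details include cell line, G-protein, co-transfected protein and tags.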

[1] = test system: T2, 
T2 sequence (whole entry): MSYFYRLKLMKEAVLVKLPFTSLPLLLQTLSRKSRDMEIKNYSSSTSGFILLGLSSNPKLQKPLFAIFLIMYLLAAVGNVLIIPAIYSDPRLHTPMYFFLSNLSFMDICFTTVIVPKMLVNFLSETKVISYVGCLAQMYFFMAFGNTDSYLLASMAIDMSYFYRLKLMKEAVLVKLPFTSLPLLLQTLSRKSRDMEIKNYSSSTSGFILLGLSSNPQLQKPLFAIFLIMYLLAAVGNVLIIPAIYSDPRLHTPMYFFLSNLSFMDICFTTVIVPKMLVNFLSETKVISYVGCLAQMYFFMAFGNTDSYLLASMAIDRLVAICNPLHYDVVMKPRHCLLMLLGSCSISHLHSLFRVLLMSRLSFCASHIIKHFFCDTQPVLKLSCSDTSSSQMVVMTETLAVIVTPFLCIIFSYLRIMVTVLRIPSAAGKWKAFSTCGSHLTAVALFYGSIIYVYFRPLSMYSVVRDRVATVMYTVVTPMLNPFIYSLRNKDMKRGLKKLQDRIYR
In short: as §1

A0A140T8K4 = test system: T3, A0A140T8K4
T3 sequence (whole entry): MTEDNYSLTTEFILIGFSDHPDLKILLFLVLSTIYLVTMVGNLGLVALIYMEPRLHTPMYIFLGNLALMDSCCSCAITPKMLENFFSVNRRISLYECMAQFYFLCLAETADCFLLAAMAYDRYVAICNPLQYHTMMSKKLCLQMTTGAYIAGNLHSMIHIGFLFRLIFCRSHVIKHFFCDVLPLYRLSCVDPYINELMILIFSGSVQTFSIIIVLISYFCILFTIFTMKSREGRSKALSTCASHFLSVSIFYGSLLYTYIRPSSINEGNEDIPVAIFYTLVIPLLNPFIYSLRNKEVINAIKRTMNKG
In short: as §1

A0A1L1SVG7 = test system: T4, A0A1L1SVG7
T4 sequence (whole entry): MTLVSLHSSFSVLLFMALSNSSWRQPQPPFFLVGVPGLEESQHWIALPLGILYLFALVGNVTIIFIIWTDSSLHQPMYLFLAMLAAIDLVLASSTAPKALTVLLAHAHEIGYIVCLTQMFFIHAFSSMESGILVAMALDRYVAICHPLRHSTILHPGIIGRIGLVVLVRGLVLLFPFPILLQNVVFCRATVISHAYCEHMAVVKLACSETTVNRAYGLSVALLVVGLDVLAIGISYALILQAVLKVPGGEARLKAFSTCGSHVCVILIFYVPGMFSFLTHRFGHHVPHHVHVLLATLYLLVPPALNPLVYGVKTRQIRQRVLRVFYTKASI
In short: as §1

A0A2J8MY22 = test system: A0A2J8MY22
In short: as §1

A0A2R8ZIW4 = test system: A0A2R8ZIW4
In short: as §1

A0A3Q7SVK8 = test system: A0A3Q7SVK8
In short: as §1

A0A6P3DZI2 = test system: A0A6P3DZI2
In short: as §1

A0A6P6H1F7 = test system: A0A6P6H1F7
In short: as §1

CBARP (Homo sapiens) = CBARP (Homo sapiens) (UniProt Q8N350)
In short: as §1

c1cnccn1
odorant receptor agonist call (A0A140T8K0): inactive

CC(C)C=O
odorant receptor agonist call (A0A140T8K0): inactive

CCCCO
odorant receptor agonist call [1]: inactive | odorant receptor agonist call (A0A140T8K0): inactive

CC(C)CC(=O)O
odorant receptor agonist call [1]: inactive | odorant receptor agonist call (A0A140T8K0): inactive

CCCCCCCC=O
odorant receptor agonist call [1]: inactive | odorant receptor agonist call (A0A140T8K0): inactive | odorant receptor agonist call (A0A140T8K4): inactive | odorant receptor agonist call (A0A1L1SVG7): inactive

CCCCCC(=O)O
odorant receptor agonist call [1]: inactive | odorant receptor agonist call (A0A140T8K0): inactive | odorant receptor agonist call (A0A140T8K4): inactive | odorant receptor agonist call (A0A1L1SVG7): inactive

C=CCc1ccc(OC)c(OC)c1
odorant receptor agonist call [1]: inactive | odorant receptor agonist call (A0A140T8K0): inactive | odorant receptor agonist call (A0A140T8K4): inactive | odorant receptor agonist call (A0A2J8MY22): active | odorant receptor agonist call (A0A2R8ZIW4): active | odorant receptor agonist call (A0A3Q7SVK8): active | odorant receptor agonist call (A0A6P3DZI2): active | odorant receptor agonist call (A0A6P6H1F7): active

C=CC(C)(O)CCC=C(C)C (configuration not stated)
odorant receptor agonist call [1]: inactive | odorant receptor agonist call (A0A140T8K0): inactive

C=C(C)C1CC=C(C)C(=O)C1 (configuration not stated)
odorant receptor agonist call (A0A140T8K0): inactive | odorant receptor agonist call (A0A140T8K4): active | odorant receptor agonist call (A0A1L1SVG7): inactive

CCCCCCCCCCC=O
odorant receptor agonist call [1]: inactive | odorant receptor agonist call (CBARP (Homo sapiens)): inactive

COc1cc(C=O)ccc1O
odorant receptor agonist call [1]: inactive | odorant receptor agonist call (A0A140T8K0): inactive

CCCCCCCCCC=O
odorant receptor agonist call [1]: inactive | odorant receptor agonist call (A0A140T8K0): inactive | odorant receptor agonist call (A0A140T8K4): inactive | odorant receptor agonist call (A0A1L1SVG7): active

COc1ccccc1O
odorant receptor agonist call [1]: inactive | odorant receptor agonist call (A0A140T8K0): inactive

CC12CCC(C1)C(C)(C)C2=O (configuration not stated)
odorant receptor agonist call [1]: inactive | odorant receptor agonist call (A0A140T8K4): inactive | odorant receptor agonist call (A0A1L1SVG7): inactive

CCCCCC(C)=O
odorant receptor agonist call [1]: inactive | odorant receptor agonist call (A0A140T8K0): inactive | odorant receptor agonist call (A0A140T8K4): inactive | odorant receptor agonist call (A0A1L1SVG7): inactive

O=C1CCCCC1
odorant receptor agonist call [1]: inactive | odorant receptor agonist call (A0A140T8K4): inactive | odorant receptor agonist call (A0A1L1SVG7): inactive

CC(C)(O)CCCC1=CCC(C=O)CC1 (configuration not stated)
odorant receptor agonist call (A0A140T8K0): inactive | odorant receptor agonist call (A0A140T8K4): inactive | odorant receptor agonist call (A0A1L1SVG7): inactive

CC(C)=CCCC(C)=CC=O
odorant receptor agonist call [1]: inactive | odorant receptor agonist call (A0A140T8K0): inactive

COC(=O)c1ccccc1O
odorant receptor agonist call [1]: inactive | odorant receptor agonist call (A0A140T8K0): inactive

CC(=O)C(C)=O
odorant receptor agonist call [1]: inactive | odorant receptor agonist call (A0A140T8K0): inactive

CC(=O)OC1CC2CCC1(C)C2(C)C (configuration not stated)
odorant receptor agonist call [1]: inactive | odorant receptor agonist call (A0A140T8K0): inactive

CCCCCOC(C)=O
odorant receptor agonist call [1]: inactive | odorant receptor agonist call (A0A140T8K0): inactive

CC(=O)c1ccccc1
odorant receptor agonist call [1]: inactive | odorant receptor agonist call (A0A140T8K0): inactive | odorant receptor agonist call (A0A140T8K4): inactive | odorant receptor agonist call (A0A1L1SVG7): inactive

O=C1CCCCCCCCCCCCCCO1
odorant receptor agonist call [1]: inactive | odorant receptor agonist call (A0A140T8K0): inactive

CCCCCCC=O
odorant receptor agonist call (A0A140T8K0): inactive | odorant receptor agonist call (A0A140T8K4): inactive | odorant receptor agonist call (A0A1L1SVG7): inactive

C=CCc1ccc(O)c(OC)c1
odorant receptor agonist call (A0A140T8K0): inactive

CC12CCC(CC1)C(C)(C)O2
odorant receptor agonist call [1]: inactive | odorant receptor agonist call (A0A140T8K0): inactive

CCCCCCCCC=O
odorant receptor agonist call (A0A140T8K0): inactive | odorant receptor agonist call (A0A140T8K4): inactive | odorant receptor agonist call (A0A1L1SVG7): active

CC1COCc2cc3c(cc21)C(C)(C)C(C)C3(C)C (configuration not stated)
odorant receptor agonist call [1]: active | odorant receptor agonist call (A0A140T8K0): inactive
